“And” between values parts separate entries of the source, which are not always exact repeats. Identical values can stand only once. This list was built around the results that the source calls inconclusive (neither active nor inactive); the mix of calls is not that of the screen. Potencies beside an inconclusive call are fits to weak or partial responses and may not hold up. The source made the active and inactive calls. The call rests on the fitted dose curve; in most records, active means well fitted inhibition curve with a large enough effect in the signal ratio in the repeat runs (not every such curve was filed as active); inconclusive means weak or mixed curves, or effect the other way; inactive means flat fitted curve, though single readings scatter; the % refers to the signal ratio.
experiment: cAMP Responsive Elements (CRE) small molecule antagonists, cell-based qHTS assay (AID 1963591); settings: CRE-bla HEK293T, beta-lactamase FRET ratio; activity change, negative = inhibition: at 92.4 µM (top of the series) unless noted
From the text: U.S. Tox21 Program National Center for Advancing Translational Sciences [NCATS] Division of Preclinical Innovation [DPI] U.S. Environmental Protection Agency [EPA] National Institutes of Environmental Health Sciences [NIEHS] National Toxicology Program [NTP] U.S. Food and Drug Administration [FDA] Tox21 Assay Overview: CREB (cyclic-AMP Responsive Element Binding Protein) is a cellular transcription factor. It binds to certain DNA sequences called cAMP Responsive Elements (CRE) and regulates the transcription of the genes. […] This cell line can be used to find agonists/antagonists of the cyclic AMP signaling pathway. The activation of the report gene under culture conditions can be detected by fluorescence intensity. This cell line has been used to screen the Tox21 10K compound library to […].
Tox21 Assay Protocol Summary: CRE-bla Hek 293T cells were suspended in assay medium (DMEM containing 10% dialyzed FBS, 0.1 mM NEAA, 1 mM sodium pyruvate and 25 mM HEPES) and dispensed at 2,000 cells/4 uL /well into 1536-well black wall/clear bottom plates using a Multidrop Combi (ThermoFisher Scientific, Waltham, MA) dispenser. After the assay plates were incubated at 37 C/5% CO2 for 18 hrs, 23 nL of compounds dissolved in DMSO, positive controls or DMSO only was transferred to the assay plate by a pintool workstation (Kalypsys, San Diego, CA), followed by addition of 1 […] uL of 1.25uM NKH477 (0.25 uM as final concentration) in assay medium using a Flying Reagent Dispenser (Aurora Discovery, San Diego, CA). The plates were incubated at 37 C and 5% CO2 for 3 hrs. Then 1 uL of LiveBLAzer B/G FRET substrate (Invitrogen, Carlsbad, CA) was added to each well using Bioraptr Flying Reagent Dispenser (FRD, Aurora Discovery, San Diego, CA). The plates were incubated at room temperature for 2 h.
On the % scale 0 is the no-effect control and ±100 the full control effect; potency means the concentration at half of the fitted maximal effect.

| Compound | Potency | activity change, negative = inhibition |
| --- | --- | --- |
| C[C@@H]1CN(C2CCC(C#N)(c3ccc(F)cc3)CC2)CC[C@]1(C(=O)O)c1ccccc1 (stereo not given in full) | inactive |  |
| CC(Oc1cccc(Cl)c1)C(=O)O (stereo not given) | inactive |  |
| C=CC(=O)OC |  | inconclusive: -20.3% |
| COC(=O)C(Br)CBr (stereo not given) | inactive |  |
| CN(C)[C@@H]1C(=O)C(C(N)=O)=C(O)[C@@]2(O)C(=O)C3=C(O)c4c(O)cccc4[C@@](C)(O)[C@H]3[C@H](O)[C@@H]12 |  | inconclusive: 2.55% |
| OCC(c1ccc(Cl)cc1)c1ccc(Cl)cc1 | inconclusive: 61.1 µM [partial curve] |  |
| CCNc1nc(NC(C)(C)C)nc(SC)n1 | inconclusive: 9.56 µM [activator, partial curve, poor fit] | inconclusive: -0.329% |
| ClCc1cccc(Cl)c1 | inactive |  |
| O=S(=O)(O)C(F)(F)C(F)(F)C(F)(F)C(F)(F)C(F)(F)C(F)(F)C(F)(F)C(F)(F)F |  | inconclusive: 9.32% |
| c1ccc2c(c1)CCCC2 | inactive |  |
| Nc1cc2c3c(c1)C(c1ccccc1)=N[C@@H](NC(=O)c1cccnc1)C(=O)N3CC2 | inconclusive: 38.6 µM [activator, partial curve] |  |
| CCC(=O)C(CCN(C)C)(c1ccccc1)c1ccccc1 | inconclusive: 21.1 µM [fluorescent] |  |
| C[C@]12CC[C@H]3[C@@H](CCC4=CC(=O)CC[C@@]43C)[C@@H]1CC[C@@H]2O | inconclusive: 54.1 µM [activator] |  |
| N#CCCl | inconclusive: 63.7 µM [fluorescent, partial curve] |  |
| O=c1[nH]c2ccccc2n1CCCN1CCC(n2c(=O)[nH]c3cc(Cl)ccc32)CC1 | inconclusive: 18.8 µM [fluorescent, partial curve, poor fit] |  |
| O=C(O)c1cccc(Cl)c1 | inactive |  |
| Nc1ccc(Cc2ccc(N)c(Cl)c2)cc1Cl |  | inconclusive: -17.1% |

| Compound | Potency | activity change, negative = inhibition |
| --- | --- | --- |
| CC(C)(C)NC[C@H](O)c1ccc(O)cc1Cl | inactive |  |
| COc1ccc([N+](=O)[O-])cc1O |  | inconclusive: 9.03% [at 42.4 µM] |
| COc1cc(CC(C)N)cc2c1OCO2 (stereo not given) | inactive |  |
| O=C1CN2CCOC2(c2ccccc2Cl)c2cc(Cl)ccc2N1 (stereo not given) | inactive |  |
| CCn1cc[n+](C)c1 | inconclusive: 69.2 µM [rising, partial curve, poor fit] | inconclusive: -3.38% and inconclusive: -8.55% |
| CC(Oc1cc(Cl)c(Cl)cc1Cl)C(=O)O (stereo not given) |  | inconclusive: 3.63% |
| CCOP(=O)(OCC)SCCSCC | inactive |  |
| CCC[CH2][Sn]([CH2]CCC)([CH2]CCC)[CH2]CCC | inconclusive: 45.2 µM [fluorescent, partial curve] |  |
| CC(C)N(C(=O)CCl)c1ccccc1 | inconclusive: 35.9 µM [rising, partial curve] | inconclusive: -23.8% |
| Oc1ccccc1Br |  | inconclusive: -11% |
| Cc1cccc(OP(=O)(Oc2cccc(C)c2)Oc2cccc(C)c2)c1 | inactive |  |
| CCOP(=S)(OCC)Oc1ccc2c(C)c(Cl)c(=O)oc2c1 | inconclusive: 68.6 µM [fluorescent] |  |
| CCN(CC)C(=O)SCc1ccc(Cl)cc1 | inconclusive: 61.1 µM [rising, partial curve, poor fit] |  |
| CCS(=O)(=O)CCSP(=O)(OC)OC |  | inconclusive: 14.6% |
| O=C(CCCN1CCC(n2c(=O)[nH]c3ccccc32)CC1)c1ccc(F)cc1 | inconclusive: 16.8 µM [activator, full curve, poor fit] |  |
| N#CC(C#N)=NNc1cccc(Cl)c1 | inconclusive: 27.3 µM [partial curve] |  |

same assay, conditions: CRE-bla HEK293T, beta-lactamase FRET ratio; at 42.4 µM (top of the series)

| Compound | activity change, negative = inhibition |
| --- | --- |
| CCCCCCCCCCCCCCCCCC(=O)O | inconclusive: -17.5% |
| CCOP(=S)(OCC)Oc1ccc2c(C)c(Cl)c(=O)oc2c1 | inconclusive: 15.2% |

same assay, conditions: CRE-bla HEK293T, beta-lactamase FRET ratio; at 92.4 µM (top of the series)

| Compound | activity change, negative = inhibition |
| --- | --- |
| CCCCCCCCCCCCCCCCCC(=O)O | inconclusive: -12.3% |
| CCOP(=S)(OCC)Oc1ccc2c(C)c(Cl)c(=O)oc2c1 | inconclusive: 13.9% |

Source: PubChem BioAssay (Tox21)
